Data taken from the supplement of paper PMC9233669.
Variants at the background level are over-represented here.

What was measured:
biotinyl-Phe-oxazolone = assay: self-aminoacylation, catalytic enhancement (BFO) (fold over background); higher = more active; k-Seq, kA / k0A0; sequences stand for … in GGGAAUGGAUCCACAUCUACGAAUUC…UUCACUGCAGACUUGACGAAGCUG
Method in brief: (§1)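 Mutagenized RNA pools (0.43 μM; 21-nt variable region) were treated with 2–1250 μM of each biotinyl-aminoacyl-oxazolone. Conditions were 50 μL HEPES/NaCl/KCl/MgCl2/CaCl2 buffer, 5% acetonitrile, pH 6.9–7.0, room temperature, 90 minutes. Catalytic enhancement, the median kA relative to the uncatalyzed rate, was derived from streptavidin capture, qPCR and Illumina sequencing.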

biotinyl-Leu-oxazolone = assay: self-aminoacylation, catalytic enhancement (BLO) (fold over background); higher = more active; k-Seq, kA / k0A0; sequences stand for … in GGGAAUGGAUCCACAUCUACGAAUUC…UUCACUGCAGACUUGACGAAGCUG
Method in brief: as §1

biotinyl-Met-oxazolone = assay: self-aminoacylation, catalytic enhancement (BMO) (fold over background); higher = more active; k-Seq, kA / k0A0; sequences stand for … in GGGAAUGGAUCCACAUCUACGAAUUC…UUCACUGCAGACUUGACGAAGCUG
Method in brief: as §1

biotinyl-Val-oxazolone = assay: self-aminoacylation, catalytic enhancement (BVO) (fold over background); higher = more active; k-Seq, kA / k0A0; sequences stand for … in GGGAAUGGAUCCACAUCUACGAAUUC…UUCACUGCAGACUUGACGAAGCUG
Method in brief: as §1

biotinyl-Ile-oxazolone = assay: self-aminoacylation, catalytic enhancement (BIO) (fold over background); higher = more active; k-Seq, kA / k0A0; sequences stand for … in GGGAAUGGAUCCACAUCUACGAAUUC…UUCACUGCAGACUUGACGAAGCUG
Method in brief: as §1

biotinyl-Trp-oxazolone = assay: self-aminoacylation, catalytic enhancement (BWO) (fold over background); higher = more active; k-Seq, kA / k0A0; sequences stand for … in GGGAAUGGAUCCACAUCUACGAAUUC…UUCACUGCAGACUUGACGAAGCUG
Method in brief: as §1

Sequence	self-aminoacylation (biotinyl-Phe-oxazolone)	self-aminoacylation (biotinyl-Leu-oxazolone)	self-aminoacylation (biotinyl-Met-oxazolone)	self-aminoacylation (biotinyl-Val-oxazolone)	self-aminoacylation (biotinyl-Ile-oxazolone)	self-aminoacylation (biotinyl-Trp-oxazolone)
CUACUUCAAACAAUCGGUGCG [Fam1A.1 aminoacylation ribozyme variant]	0.944	0.83	0.677	0.644	0.723	0.889
CUACUUCAAACAAUCGUUUUG [Fam1A.1 aminoacylation ribozyme variant]	0.98	0.568	0.603	0.669	0.758	0.576
CUACUUCAAACAAUGGGUAUG [Fam1A.1 aminoacylation ribozyme variant]	0.516	0.654	0.721	0.723	0.75	0.518
CUACUUCAAACAAUGGGUCUG [Fam1A.1 aminoacylation ribozyme variant]	0.804	0.807	0.823	0.817	0.886	0.617
CUACUUCAAACAAUGGUUCUG [Fam1A.1 aminoacylation ribozyme variant]	0.557	0.618	0.514	0.643	0.653	0.509
CUACUUCAAACAAUUGGUCUA [Fam1A.1 aminoacylation ribozyme variant]	0.989	0.755	0.693	0.75	0.89	0.678
CUACUUCAAACAAUUGGUCUU [Fam1A.1 aminoacylation ribozyme variant]	1.14	0.647	0.761	0.935	1.01	0.615
CUACUUCAAACACUCUGUCUG [Fam1A.1 aminoacylation ribozyme variant]	0.709	0.547	0.608	0.724	0.797	0.678
CUACUUCAAACAUUCGGUCGG [Fam1A.1 aminoacylation ribozyme variant]	0.761	1.47	1.66	1.41	1.54	1.04
CUACUUCAAACAUUCGGUCUA [Fam1A.1 aminoacylation ribozyme variant]	0.783	0.766	0.882	1.02	1.03	0.89
CUACUUCAAACCAUCCGUCUG [Fam1A.1 aminoacylation ribozyme variant]	0.573	0.721	0.891	1.14	0.891	0.802
CUACUUCAAACCAUCGGUAUG [Fam1A.1 aminoacylation ribozyme variant]	0.676	0.832	0.736	0.743	0.874	0.5
CUACUUCAAACCAUCGGUCUU [Fam1A.1 aminoacylation ribozyme variant]	1.03	0.838	1.14	1.08	1.25	0.927
CUACUUCAAACGAUAGGUCUG [Fam1A.1 aminoacylation ribozyme variant]	0.577	0.537	0.807	0.685	0.593	0.623
CUACUUCAAACGAUCGGUCCG [Fam1A.1 aminoacylation ribozyme variant]	0.404	1.08	0.988	0.743	0.8	0.861
CUACUUCAAACUAUAGGUCUG [Fam1A.1 aminoacylation ribozyme variant]	0.939	0.601	0.604	0.745	0.727	0.592
CUACUUCAAACUAUCGGGCUG [Fam1A.1 aminoacylation ribozyme variant]	0.831	1.43	1.35	1.47	1.33	1.15
CUACUUCAAACUAUCGGUCAG [Fam1A.1 aminoacylation ribozyme variant]	0.824	0.63	0.704	0.801	0.742	0.542
CUACUUCAAACUAUCGUUCUG [Fam1A.1 aminoacylation ribozyme variant]	0.696	0.613	0.508	0.674	0.629	0.494
CUACUUCAAAGAAUCGAUCUG [Fam1A.1 aminoacylation ribozyme variant]	0.544	0.615	0.454	0.595	0.679	0.506
CUACUUCAAAUAAUCGUUCUG [Fam1A.1 aminoacylation ribozyme variant]	1.71	0.62	0.688	0.694	0.686	0.97

Sequence	self-aminoacylation (biotinyl-Phe-oxazolone)	self-aminoacylation (biotinyl-Leu-oxazolone)	self-aminoacylation (biotinyl-Met-oxazolone)	self-aminoacylation (biotinyl-Val-oxazolone)	self-aminoacylation (biotinyl-Ile-oxazolone)	self-aminoacylation (biotinyl-Trp-oxazolone)
CUACUUCAAAUAAUCUGUCUG [Fam1A.1 aminoacylation ribozyme variant]	1.98	0.639	0.805	0.748	0.855	1.17
CUACUUCAACCAAUUGGUCUG [Fam1A.1 aminoacylation ribozyme variant]	1.67	0.794	0.9	0.89	0.88	0.957
CUACUUCAAGCAAACGGUCUG [Fam1A.1 aminoacylation ribozyme variant]	0.755	0.765	0.91	0.801	0.82	0.694
CUACUUCAAGCAAUCUGUCUG [Fam1A.1 aminoacylation ribozyme variant]	1.44	0.536	0.548	0.813	0.771	0.801
CUACUUCAAGCAUUCGGUCUG [Fam1A.1 aminoacylation ribozyme variant]	1.25	1.07	1.21	1.21	1.15	0.865
CUACUUCAAUCAGUCGGUCUG [Fam1A.1 aminoacylation ribozyme variant]	0.528	0.593	0.646	0.71	0.665	0.469
CUACUUCACAAAAUCGGUCUG [Fam1A.1 aminoacylation ribozyme variant]	0.608	0.823	0.863	0.831	0.985	0.739
CUACUUCACACAAUCGCUCUG [Fam1A.1 aminoacylation ribozyme variant]	0.953	1.38	1.08	1.22	1.07	0.533
CUACUUCACACAAUCGGGCUG [Fam1A.1 aminoacylation ribozyme variant]	1.01	1.21	1.65	1.31	1.46	1.55
CUACUUCAGACAAUCGCUCUG [Fam1A.1 aminoacylation ribozyme variant]	0.627	0.921	1.07	0.941	0.916	0.853
CUACUUCAGACAAUCGGUCCG [Fam1A.1 aminoacylation ribozyme variant]	0.81	1.01	1	0.695	0.811	1.38
CUACUUCAGACAAUCUGUCUG [Fam1A.1 aminoacylation ribozyme variant]	0.716	0.56	0.711	0.646	0.6	0.445
CUACUUCAGACAAUUGGUCUG [Fam1A.1 aminoacylation ribozyme variant]	0.687	0.754	0.766	0.758	0.877	0.601
CUACUUCAUACAAUCCGUCUG [Fam1A.1 aminoacylation ribozyme variant]	0.802	0.741	0.821	0.87	0.857	0.586
CUACUUCAUAUAAUCGGUCUG [Fam1A.1 aminoacylation ribozyme variant]	0.756	0.748	0.791	0.718	0.771	0.593
CUACUUCCAACAAACGGUCUG [Fam1A.1 aminoacylation ribozyme variant]	0.741	0.598	0.676	0.707	0.768	0.756
CUACUUCCAACAAUCGGUCUC [Fam1A.1 aminoacylation ribozyme variant]	0.933	0.743	0.803	0.665	0.684	0.655
CUACUUCCAUCAAUCGGUCUG [Fam1A.1 aminoacylation ribozyme variant]	0.571	0.731	0.627	0.79	0.758	0.741
CUACUUCGAACAAUCGGCCUG [Fam1A.1 aminoacylation ribozyme variant]	4.78	1.36	1.71	1.54	1.6	1.84
CUACUUCGAACAAUCGGUCAG [Fam1A.1 aminoacylation ribozyme variant]	0.751	0.713	0.588	0.825	0.827	0.415
CUACUUCGAACAAUCGGUCUA [Fam1A.1 aminoacylation ribozyme variant]	0.547	0.854	0.833	0.743	0.926	0.62
